About 210 (0.4%) of roughly 52,000 sequences were called active.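 Rule for the calls: active = gene whose silencing raises cell survival under the drug, median off-target-corrected z-score across its silencing RNAs 2 or more; inactive = the rest.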 The list shows a part of the results.

This note sets out measurements from PubChem BioAssay AID1347423 (Functional Genomics Laboratory (NCATS/FGL), 2020).

The experiment in a line: Resistance to Poly (ADP-Ribose) Polymerase inhibitor: Gene Identification via Genome-wide siRNA Screen. The conditions noted are these: mouse BRCA2 R2336H ES cells, olaparib, CellTiter-Glo viability; active compounds read high. From the text: The role of Poly (ADP-Ribose) Polymerase (PARP) proteins in DNA repair has been elegantly utilized for the synthetic lethality-based treatment of BRCA-deficient tumors by PARP inhibitors. PARP inhibitors are now being used for treatment of BRCA-deficient breast and ovarian cancers. […] While several mechanisms of drug resistance have been identified, majority of these tumors develop drug resistance due to unknown causes. To identified novel regulators of chemo-resistance in BRCA2-mutated cells, we performed a genome wide siRNA library screen. We have found ES cells expressing a hypomorphic allele of BRCA2 to be hypersensitive to PAPP inhibitors (such as olaparib). We used ES cells expressing a mutant allele of BRCA2 that has a single amino acid substitution at position 2336 (arginine to histidine, R2336H). The screen was conducted using an Ambion (Thermo) Silencer Mouse Genome siRNA collection. The library targets 17,575 mouse genes with 3 siRNAs per gene. TET2 (E130014J05Rik) was identified as a top candidate.
Transfections were performed in 384 well plates (Corning 3707). Plates were coated with 0.1% gelatin in H2O overnight at ambient temperature. Gelatin solution was aspirated (BioTek EL406) and siRNAs were printed using a Bravo VPrep liquid handler integrated within a BioCel automation platform (Agilent). Cell viability was measured using CellTiter Glo (Promega). For transfections, […] of serum free media containing Lipofectamine RNAiMax […] was added to wells containing siRNA (0.8pmol). Lipid and siRNA were allowed to complex for 45 min at ambient temperature before addition of 1000 cells in DMEM, 30% FBS to yield final transfection mixtures containing 20 nM siRNA in DMEM, 15% FBS. PARPi (olaparib, AZD2281) was added 48 h post-transfection (500 nM) and viability (CellTiter Glo, Promega) was assayed 72 h later on a PerkinElmer Envision 2104 Multilabel plate reader. Ambion Silencer Select Negative Control #2 was incorporated on all screening plates (16 wells) and the median negative control value on each plate was used for normalization. An siRNA targeting Trp53 was used as a positive control. This control yielded a median protective effect of ~1.9 fold versus negative control throughout the screen. The median absolute deviation (MAD) based z-score was calculated for each siRNA. Genes were then ranked by taking the median value for all siRNAs tested against a given gene. Scores were also adjusted for seed-based off-target effects to help deprioritize likely false positives.
On the technique in general: ATP-based viability assays read luminescence as a measure of living cells.
Consider GCUAUUGAGUCGUGAGACUTT against Apoc3, for which the z-score is inactive: -2.39. On to GGUUUGACUAACUUUCCUUTT against Fbxl15, for which the z-score is inactive: 0.192. Regarding CCAUAACCAACGUGUUCGUTT against Adrb3, the z-score is inactive: 1.3. Take GGUUACCUCCACCAGAUCATT against Avpi1: the z-score is inactive: -2.35. With GCUAACAAAUGUCAGCAUGTT against Popdc3 the figure was inactive: 0.884; with “CCACACCUUCAAAGCGAGATT against D930040M24Rik”, inactive: 0.276; with GGAAUCUGGGCUCUUACACTT against Tcfap2a, inactive: 1.61. As to GGCUGAAGUUCAUGAUGGCTT against Cd209d, the z-score was inactive: 0.683. As for “CCUAUGUAUGUCAACAUACTT against 1700028P14Rik”, the z-score is inactive: -0.0328. With GGAGAAGAAACUGAACCUGTT against Ppan, the z-score is inactive: 0.184. With GCUAUGAAGCAAUUGUGGATT against Fasn the figure was inactive: 0.546. With “GCUUUGAUUUAUGAGGUCATT against 4930506L13Rik” the figure was inactive: -1.82; with GGAAAGUGUUCUCUACAUGTT against Olfr1093, inactive: 0.077. With GGUGGAAUUUACAUAAUGATT against Igsf11 the figure was inactive: -0.629; with GGUGUUAGAAGUCAACGGUTT against Pard6b, inactive: 0.00297; with GGGAUACAUCUAUUGAAUCTT against BC021442, inactive: 0.501.

Regarding GCUGAGUUGGCUCAUCAACTT against Fbxl10, the z-score is inactive: -0.09.

In the case of CCUGAAAGAUGCUCUCUAUTT against Inpp4b, the z-score is inactive: 1.25. Consider GGCUGUUCAAAAAUUUCGGTT against Sox17, for which the z-score was inactive: -0.703. With CCGAAUUUCCAAAAAUGCATT against Foxd3 the figure was inactive: -0.486; with CCCUAGGGUGAUGAAGCAUTT against Ckmt2, inactive: 0.274; with GGGCAAACUCAUUUUUUGATT against F10, inactive: 0.315. With GGGUCUUAUGGAAGUGUUUTT against Stk3 the figure was inactive: 1.08.

With GGGAAUACUGUGAACACCGTT against LOC245297, the z-score is inactive: 1.73.

Turning to “GGAAUUCUCUCAGCAGAAGTT against 1110038F14Rik”, the z-score is inactive: -1.88. Consider GAUAUGUGUACACUUCUGCTT against V1ri5, for which the z-score is inactive: 0.234.

As to GGCCCACGUCCUGUACAUUTT against Tdrd1, the z-score is inactive: 1.24. With GGGUUAUAGGUGUGUGUGCTT against Gemin6 the figure was inactive: 0.258. On to CCGGAAAAUGCUACUGAAATT against Pcdhb10, for which the z-score is inactive: 0.424. In the case of “GCUCUAGUUCUGUAAAGUGTT against D630004N19Rik”, the z-score was inactive: -0.755. With GGAACAGAUAAAGAGGGAATT against Zfp326 the figure was inactive: -1.75; with “GGUUAAAAUUGGCUAAAUGTT against 6030405A18”, inactive: -0.201; with “CGUGUAAAAGCCGGAUUGATT against 1500015L24Rik”, inactive: 0.909. With GGCAUUCUCCACGUGCUCUTT against Olfr273 the figure was inactive: -0.846; with GGGCUCGAAUCCAUCACAGTT against Pcdhb6, inactive: -0.5; with GCAUUCUGAAGCUUCCAUCTT against Olfr1112, inactive: 0.505. With “GGGUUUCCUGGAUUCUCAUTT against E030006K04Rik” the figure was inactive: 0.0254; with GGAAGUCUCAGACCACAACTT against Ech1, inactive: -1.02. Take GCCAAGGAUGCAGAUAUCGTT against AW491445: the z-score is inactive: 0.565. With “CGGUGUUCGCUUUUCAGAATT against 2010013E08Rik”, the z-score was inactive: 0.494. Turning to CGUAGUCGAUUCAGGAGAGTT against LOC382243, the z-score was inactive: -0.483. With CCAUUAGGAUGACCUCCAUTT against Slc38a3 the figure was inactive: 0.523; with GUGGAUUAGGGAAUUUCAUTT against Mrgprb1, inactive: -0.48. With GCCUGAAAAGUUUAAACUCTT against Nalp9b the figure was inactive: 0.438. With GGAAACAAAAAGAAUGCUGTT against Apex1 the figure was inactive: 0.248. For the sequence GGUUGUUAGAGGUAAUUUGTT against Zfp128, the z-score was inactive: 0.346. In the case of CCUUCAACUCCUCACUUCCTT against H2-D1, the z-score is inactive: 0.583.

On to GGUACAUCUAUUUCUUGUUTT against Ncam2, for which the z-score is inactive: -0.59. With GGUCAAGCAAGUGUUGGUUTT against Gart the figure was inactive: -0.808. Turning to GGCAACUUGGGAGUUUCACTT against Kcnab1, the z-score was inactive: 1.3. As to GGUACACAGCAGUGGUCAUTT against Drd3, the z-score is inactive: 0.0272. As to GGUUUUUAACCAAACAUGATT against Actr3, the z-score is inactive: 0.126. With GGUCAACAACAACUCCGUUTT against Ret the figure was inactive: -0.944; with GGAAUUUUAGCGGAUGAUATT against Smarca3, active: 1.54; with CCUCAAUUCGGACAAGCUGTT against Scnn1a, inactive: -0.931.

Regarding “GGGAAAGAAAGGGUACAAUTT against D430033A06Rik”, the z-score is inactive: 0.0745. With GGAAAAAUGUGCUGUGUGGTT against Tcea1 the figure was inactive: -0.239; with GAGCCUUUCCUUUCUGGACTT against Olfr466, inactive: 0.551. With GCAGUGGGAAUCGAUAAAGTT against Fgfr2 the figure was inactive: -0.186.

Turning to “GGUCAUCUCCUAUGGAAAUTT against C030004A17Rik”, the z-score is inactive: 1.23. GGGUCACCAUCAAGAUGGATT against Erg: the z-score was inactive: -0.867. With GGUGCAUAAAACCCUUAAATT against Rbms1 the figure was inactive: -0.239. With GGCUUGCUAAAGGAUGGGATT against Adck4 the figure was inactive: -0.769.

As to GGAGAAUGUUUUUGACUGGTT against BC024997, the z-score was inactive: 0.154. With “CCAUAUAACUGCCAAUAAUTT against 4930532L20Rik” the figure was inactive: -0.458; with CAUGGUUUUUAGAGACAAUTT against Olfr774, inactive: -0.67; with CGAAGUACCUGAAUUUUGCTT against Pde6b, inactive: -0.682. With GCCACUCUAUGUGAACACATT against Hmgb2l1 the figure was inactive: 1.01; with GGAAGGAGAUUACAUUGUUTT against Rhpn2, inactive: 0.407; with GCUCCUGAACUAAUACAAGTT against Melk, inactive: -1.08. With “GGAAAAUGGAAUCUUCGGUTT against 4933435A13Rik” the figure was inactive: 1.31; with “GGCAUUUCUUCAAAGCUGATT against 9430083I22”, inactive: -1.25. Consider “GGAAAGCAAAAAGUUUCAGTT against C030004A17Rik”, for which the z-score is inactive: 0.798. Consider GGAACUUUUUAAGAUGCGUTT against Ranbp1, for which the z-score was inactive: 0.484.

GGCAGACUCUGCCUACUUATT against Utf1: the z-score is inactive: 0.133. With GGAUGGACAACAUCAAACATT against Ltbp2 the figure was inactive: 1.13. With GGAACUACUUUGAGAGCACTT against Arl2, the z-score was inactive: -1.18. As for CCAAAGGAAUGCGUUUUACTT against Msh2, the z-score was inactive: 1.78. With CGAUGUACUCCAUGUUGGGTT against Bpil3 the figure was inactive: 0.145; with CCGGAAGAUCAAUAUAAGATT against Crisp2, inactive: 0.925; with GGCUAUUGUUUCAUCCUGATT against Emp1, inactive: -0.569.

For “CGGAAUGAUCUAGAAAAUATT against B130017I01Rik”, the z-score was inactive: 1.03. Consider GCUAAACAGAACAGGUUGUTT against Gp38, for which the z-score was inactive: -0.112.

As to GGCCAGCUCUCUUUUGCUATT against Cflar, the z-score is inactive: 0.643. Take “GGAAAAAAGGUCUGUAAAUTT against 4930522D07Rik”: the z-score was inactive: -0.442.

Take CGAGUAUGCCGAAAACACUTT against Car6: the z-score is inactive: -0.00439. With GCUGACAAAGUCGUUUCCUTT against Olfr732 the figure was inactive: -0.268; with GGAGAAAACACAAUGUCUUTT against Limd1, inactive: -0.414; with “CCACCACAAGUACCGUAAATT against 0610033H09Rik”, inactive: 1.49. With CCCAAGAAUGACCAAGUAGTT against Gpr17, the z-score was inactive: -3.19. With CCAUUACAGGGUUUUUUAUTT against Slc37a3 the figure was inactive: 0.0842. Take GGCUAAGUGGGUGUUCACGTT against Slc24a4: the z-score is inactive: -0.409.

Regarding GGUAUUGUGUUUCCCAAACTT against BC018371, the z-score is inactive: -0.387. With GGCUUUUGACUUUACCCUATT against Acy3 the figure was inactive: -1.38. With UUACUCAGUUCUCACCUUCTT against Olfr970 the figure was inactive: -2.89; with GGUAUGAGUACAAAUACUGTT against Tek, inactive: -0.81; with GACCGAGUUCAAAGCGAACTT against Atp5e, inactive: -2.59.

For the sequence GCCUGUCGUACCUCCUUUATT against Folr2, the z-score is inactive: -0.854. Turning to GGUGGAUGAAGUUAUUGAUTT against Vamp4, the z-score was inactive: 0.0211. With GGAGUCGUCAACUCUGGCUTT against Lsm10 the figure was inactive: -0.263. With “GGUGAAUGCACCUUGACCCTT against 4921511D23Rik” the figure was inactive: -0.187; with UUCGGAUCCUAACUUCAACTT against Zmynd12, inactive: -1.22; with CGACUACACAACCUUUGGGTT against Prlpa, inactive: -1.03.

For the sequence GGGCAAAGCCUUCAACCCUTT against Insl6, the z-score was inactive: -0.729.
